In the assay the test system is U118 Glioblastoma. The assay can be described thus: Cell line assay, HOCOS combinations, U118. Format: cell-based. The following applies: Homo sapiens; U118, compound alone. As to the method:
To study the possible use of HOCOS in combinatorial therapies, human glioblastoma cells of lines U118, SNB19, SF268, human mesothelioma cells NCI-H2021 and pancreatic cancer cells BxPC-3 (pancreatic adenocarcinoma) and MIAPaCa-2 ([…]) were cultured in the absence or presence of different chemotherapeutic agents and combinations of HOCOS with said compounds.

What is called IC50 is the concentration that inhibits the measured activity by half. For `Cc1ccc(NC(=O)c2ccc(CN3CCN(C)CC3)cc2)cc1Nc1nccc(-c2cccnc2)n1` [Imatinib], the IC50 worked out at 234 nM.

The record behind these values is patent US20260115161A1, “2-HYDROXY-OCTADECENE-9-CIS-OATE FOR USE IN THE TREATMENT OF ONCOLOGICAL PATHOLOGIES AND NEUROPATHIC PAIN” (Laminar Pharmaceuticals S.A., priority 2023, published 2026).
